Results are given in words; binding and its absence hold for the method and conditions named. In cells and extracts the contact can be indirect. A yes stands for co-enrichment or nearness to the bait. Other partners may have been found. Sequences can lack the tags named with a protein.
T1: Flag-tagged basic leucine zipper and W2 domain-containing protein 2 (BZW2) (human) (UniProt Q9Y6E2)
T1 sequence: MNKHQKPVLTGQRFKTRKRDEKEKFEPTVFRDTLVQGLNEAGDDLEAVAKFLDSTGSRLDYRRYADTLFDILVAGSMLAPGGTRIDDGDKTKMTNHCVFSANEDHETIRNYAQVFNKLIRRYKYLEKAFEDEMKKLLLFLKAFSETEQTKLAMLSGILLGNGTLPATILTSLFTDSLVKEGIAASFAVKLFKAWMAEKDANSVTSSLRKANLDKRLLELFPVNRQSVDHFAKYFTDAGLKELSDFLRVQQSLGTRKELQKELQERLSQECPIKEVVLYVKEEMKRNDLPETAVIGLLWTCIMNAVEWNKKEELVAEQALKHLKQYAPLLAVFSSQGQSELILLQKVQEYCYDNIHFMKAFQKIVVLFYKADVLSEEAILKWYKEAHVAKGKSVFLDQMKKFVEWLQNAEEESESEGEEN

Sequences of proteins named here, by UniProt entry; tags and fusion partners are left off. Residues count along the entry.
UniProt P25705, residues 44-553: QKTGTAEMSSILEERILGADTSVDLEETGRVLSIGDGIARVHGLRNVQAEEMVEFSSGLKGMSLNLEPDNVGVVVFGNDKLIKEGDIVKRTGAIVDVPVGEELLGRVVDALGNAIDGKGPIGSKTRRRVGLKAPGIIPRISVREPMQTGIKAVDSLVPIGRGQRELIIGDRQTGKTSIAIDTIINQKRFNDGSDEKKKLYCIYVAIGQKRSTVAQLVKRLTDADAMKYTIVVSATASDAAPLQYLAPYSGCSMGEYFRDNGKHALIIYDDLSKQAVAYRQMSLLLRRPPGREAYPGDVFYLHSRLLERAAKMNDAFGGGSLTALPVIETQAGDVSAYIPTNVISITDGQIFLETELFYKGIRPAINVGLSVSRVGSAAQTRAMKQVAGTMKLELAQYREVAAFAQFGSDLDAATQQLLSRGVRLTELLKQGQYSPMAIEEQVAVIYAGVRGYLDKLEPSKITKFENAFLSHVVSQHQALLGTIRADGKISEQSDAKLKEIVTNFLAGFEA
UniProt O95292: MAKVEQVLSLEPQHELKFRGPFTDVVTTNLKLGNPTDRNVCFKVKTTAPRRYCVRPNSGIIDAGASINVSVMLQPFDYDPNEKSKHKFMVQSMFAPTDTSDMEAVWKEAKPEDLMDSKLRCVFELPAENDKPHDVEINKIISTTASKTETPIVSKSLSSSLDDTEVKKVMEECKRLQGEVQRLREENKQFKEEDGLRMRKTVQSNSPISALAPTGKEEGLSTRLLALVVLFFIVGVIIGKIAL
UniProt P49069: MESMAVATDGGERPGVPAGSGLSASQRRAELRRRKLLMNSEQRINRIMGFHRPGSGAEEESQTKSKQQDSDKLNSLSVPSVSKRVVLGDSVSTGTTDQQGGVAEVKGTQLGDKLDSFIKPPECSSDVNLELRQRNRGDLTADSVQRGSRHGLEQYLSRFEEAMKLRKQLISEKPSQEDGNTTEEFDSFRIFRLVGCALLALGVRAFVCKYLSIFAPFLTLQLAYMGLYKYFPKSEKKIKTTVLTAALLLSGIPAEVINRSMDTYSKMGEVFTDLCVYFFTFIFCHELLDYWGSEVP
UniProt Q07065: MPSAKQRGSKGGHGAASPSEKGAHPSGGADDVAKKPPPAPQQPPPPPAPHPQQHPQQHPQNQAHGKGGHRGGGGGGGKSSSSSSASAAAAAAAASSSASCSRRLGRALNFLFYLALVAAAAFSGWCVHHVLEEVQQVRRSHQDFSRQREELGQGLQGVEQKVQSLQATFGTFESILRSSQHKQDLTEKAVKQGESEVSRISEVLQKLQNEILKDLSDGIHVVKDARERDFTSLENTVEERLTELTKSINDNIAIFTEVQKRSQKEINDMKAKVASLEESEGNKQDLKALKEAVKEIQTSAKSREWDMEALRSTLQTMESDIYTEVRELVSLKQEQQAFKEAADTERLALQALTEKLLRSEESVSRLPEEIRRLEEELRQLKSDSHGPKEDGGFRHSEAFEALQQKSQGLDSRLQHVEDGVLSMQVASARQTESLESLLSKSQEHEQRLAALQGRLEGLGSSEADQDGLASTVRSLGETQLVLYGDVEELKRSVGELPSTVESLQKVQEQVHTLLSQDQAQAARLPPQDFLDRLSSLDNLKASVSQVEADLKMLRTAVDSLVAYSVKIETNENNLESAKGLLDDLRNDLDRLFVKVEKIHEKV
UniProt Q969V5: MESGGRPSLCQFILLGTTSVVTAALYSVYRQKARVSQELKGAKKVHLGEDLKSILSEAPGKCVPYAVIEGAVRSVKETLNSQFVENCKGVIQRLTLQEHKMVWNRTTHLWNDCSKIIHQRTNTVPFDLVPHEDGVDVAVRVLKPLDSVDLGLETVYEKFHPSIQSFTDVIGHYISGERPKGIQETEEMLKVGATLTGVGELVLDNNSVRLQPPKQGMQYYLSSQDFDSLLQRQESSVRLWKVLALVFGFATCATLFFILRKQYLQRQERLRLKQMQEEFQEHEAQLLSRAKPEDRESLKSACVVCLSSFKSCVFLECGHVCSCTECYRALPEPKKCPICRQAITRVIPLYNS
UniProt P04899: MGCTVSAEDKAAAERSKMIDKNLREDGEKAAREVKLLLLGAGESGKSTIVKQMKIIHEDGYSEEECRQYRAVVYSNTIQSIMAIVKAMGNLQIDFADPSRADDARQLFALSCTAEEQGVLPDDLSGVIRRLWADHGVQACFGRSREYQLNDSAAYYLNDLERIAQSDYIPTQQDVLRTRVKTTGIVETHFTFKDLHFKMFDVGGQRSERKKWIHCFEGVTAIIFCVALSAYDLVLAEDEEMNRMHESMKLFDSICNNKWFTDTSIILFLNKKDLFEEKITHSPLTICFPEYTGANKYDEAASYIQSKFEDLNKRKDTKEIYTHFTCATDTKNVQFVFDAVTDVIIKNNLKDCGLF

B1: PRDX1 (protein, UniProt Q06830 1-199)
chain: MSSGNAKIGHPAPNFKATAVMPDGQFKDISLSDYKGKYVVFFFYPLDFTFVCPTEIIAFSDRAEEFKKLNCQVIGASVDSHFCHLAWVNTPKKQGGLGPMNIPLVSDPKRTIAQDYGVLKADEGISFRGLFIIDDKGILRQITVNDLPVGRSVDETLRLVQAFQFTDKHGEVCPAGWKPGSDTIKPDVQKSKEYFSKQK
B2: MBOAT7 (protein, UniProt Q96N66 1-472)
chain: MSPEEWTYLVVLLISIPIGFLFKKAGPGLKRWGAAAVGLGLTLFTCGPHTLHSLVTILGTWALIQAQPCSCHALALAWTFSYLLFFRALSLLGLPTPTPFTNAVQLLLTLKLVSLASEVQDLHLAQRKEMASGFSKGPTLGLLPDVPSLMETLSYSYCYVGIMTGPFFRYRTYLDWLEQPFPGAVPSLRPLLRRAWPAPLFGLLFLLSSHLFPLEAVREDAFYARPLPARLFYMIPVFFAFRMRFYVAWIAAECGCIAAGFGAYPVAAKARAGGGPTLQCPPPSSPEKAASLEYDYETIRNIDCYSTDFCVRVRDGMRYWNMTVQWWLAQYIYKSAPARSYVLRSAWTMLLSAYWHGLHPGYYLSFLTIPLCLAAEGRLESALRGRLSPGGQKAWDWVHWFLKMRAYDYMCMGFVLLSLADTLRYWASIYFCIHFLALAALGLGLALGGGSPSRRKAASQPTSLAPEKLREE
B3: SRPRB (protein, UniProt Q9Y5M8 1-271)
chain: MASADSRRVADGGGAGGTFQPYLDTLRQELQQTDPTLLSVVVAVLAVLLTLVFWKLIRSRRSSQRAVLLVGLCDSGKTLLFVRLLTGLYRDTQTSITDSCAVYRVNNNRGNSLTLIDLPGHESLRLQFLERFKSSARAIVFVVDSAAFQREVKDVAEFLYQVLIDSMGLKNTPSFLIACNKQDIAMAKSAKLIQQQLEKELNTLRVTRSAAPSTLDSSSTAPAQLGKKGKEFEFSQLPLKVEFLECSAKGGRGDVGSADIQDLEKWLAKIA
B4: PGRMC2 (protein, UniProt O15173 1-223)
chain: MAAGDGDVKLGTLGSGSESSNDGGSESPGDAGAAAEGGGWAAAALALLTGGGEMLLNVALVALVLLGAYRLWVRWGRRGLGAGAGAGEESPATSLPRMKKRDFSLEQLRQYDGSRNPRILLAVNGKVFDVTKGSKFYGPAGPYGIFAGRDASRGLATFCLDKDALRDEYDDLSDLNAVQMESVREWEMQFKEKYDYVGRLLKPGEEPSEYTDEEDTKDHNKQD
B5: BCAP31 (protein, UniProt P51572 1-246)
chain: MSLQWTAVATFLYAEVFVVLLLCIPFISPKRWQKIFKSRLVELLVSYGNTFFVVLIVILVLLVIDAVREIRKYDDVTEKVNLQNNPGAMEHFHMKLFRAQRNLYIAGFSLLLSFLLRRLVTLISQQATLLASNEAFKKQAESASEAAKKYMEENDQLKKGAAVDGGKLDVGNAEVKLEEENRSLKADLQKLKDELASTKQKLEKAENQVLAMRKQSEGLTKEYDRLLEEHAKLQAAVDGPMDKKEE
B6: SLC25A6/ANT3 (protein, UniProt P12236 1-298)
chain: MTEQAISFAKDFLAGGIAAAISKTAVAPIERVKLLLQVQHASKQIAADKQYKGIVDCIVRIPKEQGVLSFWRGNLANVIRYFPTQALNFAFKDKYKQIFLGGVDKHTQFWRYFAGNLASGGAAGATSLCFVYPLDFARTRLAADVGKSGTEREFRGLGDCLVKITKSDGIRGLYQGFSVSVQGIIIYRAAYFGVYDTAKGMLPDPKNTHIVVSWMIAQTVTAVAGVVSYPFDTVRRRMMMQSGRKGADIMYTGTVDCWRKIFRDEGGKAFFKGAWSNVLRGMGGAFVLVLYDELKKVI
B7: PTPLAD1/HACD3 (protein, UniProt Q9P035 1-362)
chain: MENQVLTPHVYWAQRHRELYLRVELSDVQNPAISITENVLHFKAQGHGAKGDNVYEFHLEFLDLVKPEPVYKLTQRQVNITVQKKVSQWWERLTKQEKRPLFLAPDFDRWLDESDAEMELRAKEEERLNKLRLESEGSPETLTNLRKGYLFMYNLVQFLGFSWIFVNLTVRFCILGKESFYDTFHTVADMMYFCQMLAVVETINAAIGVTTSPVLPSLIQLLGRNFILFIIFGTMEEMQNKAVVFFVFYLWSAIEIFRYSFYMLTCIDMDWKVLTWLRYTLWIPLYPLGCLAEAVSVIQSIPIFNETGRFSFTLPYPVKIKVRFSFFLQIYLIMIFLGLYINFRHLYKQRRRRYGQKKKKIH
B8: TMEM43 (protein, UniProt Q9BTV4 1-400)
chain: MAANYSSTSTRREHVKVKTSSQPGFLERLSETSGGMFVGLMAFLLSFYLIFTNEGRALKTATSLAEGLSLVVSPDSIHSVAPENEGRLVHIIGALRTSKLLSDPNYGVHLPAVKLRRHVEMYQWVETEESREYTEDGQVKKETRYSYNTEWRSEIINSKNFDREIGHKNPSAMAVESFMATAPFVQIGRFFLSSGLIDKVDNFKSLSLSKLEDPHVDIIRRGDFFYHSENPKYPEVGDLRVSFSYAGLSGDDPDLGPAHVVTVIARQRGDQLVPFSTKSGDTLLLLHHGDFSAEEVFHRELRSNSMKTWGLRAAGWMAMFMGLNLMTRILYTLVDWFPVFRDLVNIGLKAFAFCVATSLTLLTVAAGWLFYRPLWALLIAGLALVPILVARTRVPAKKLE
B9: RALA (protein, UniProt P11233 1-206)
chain: MAANKPKGQNSLALHKVIMVGSGGVGKSALTLQFMYDEFVEDYEPTKADSYRKKVVLDGEEVQIDILDTAGQEDYAAIRDNYFRSGEGFLCVFSITEMESFAATADFREQILRVKEDENVPFLLVGNKSDLEDKRQVSVEEAKNRAEQWNVNYVETSAKTRANVDKVFFDLMREIRARKMEDSKEKNGKKKRKSLAKRIRERCCIL
B10: SLC25A3/PiC2 (protein, UniProt Q00325 50-362)
chain: AVEEQYSCDYGSGRFFILCGLGGIISCGTTHTALVPLDLVKCRMQVDPQKYKGIFNGFSVTLKEDGVRGLAKGWAPTFLGYSMQGLCKFGFYEVFKVLYSNMLGEENTYLWRTSLYLAASASAEFFADIALAPMEAAKVRIQTQPGYANTLRDAAPKMYKEEGLKAFYKGVAPLWMRQIPYTMMKFACFERTVEALYKFVVPKPRSECSKPEQLVVTFVAGYIAGVFCAIVSHPADSVVSVLNKEKGSSASLVLKRLGFKGVWKGLFARIIMIGTLTALQWFIYDSVKVYFRLPRPPPPEMPESLKKKLGLTQ
B11: SLC16A1/MCT1 (protein, UniProt P53985 1-500)
chain: MPPAVGGPVGYTPPDGGWGWAVVIGAFISIGFSYAFPKSITVFFKEIEGIFHATTSEVSWISSIMLAVMYGGGPISSILVNKYGSRIVMIVGGCLSGCGLIAASFCNTVQQLYVCIGVIGGLGLAFNLNPALTMIGKYFYKRRPLANGLAMAGSPVFLCTLAPLNQVFFGIFGWRGSFLILGGLLLNCCVAGALMRPIGPKPTKAGKDKSKASLEKAGKSGVKKDLHDANTDLIGRHPKQEKRSVFQTINQFLDLTLFTHRGFLLYLSGNVIMFFGLFAPLVFLSSYGKSQHYSSEKSAFLLSILAFVDMVARPSMGLVANTKPIRPRIQYFFAASVVANGVCHMLAPLSTTYVGFCVYAGFFGFAFGWLSSVLFETLMDLVGPQRFSSAVGLVTIVECCPVLLGPPLLGRLNDMYGDYKYTYWACGVVLIISGIYLFIGMGINYRLLAKEQKANEQKKESKEEETSIDVAGKPNEVTKAAESPDQKDTDGGPKEEESPV
B12: AGK (protein, UniProt Q53H12 1-422)
chain: MTVFFKTLRNHWKKTTAGLCLLTWGGHWLYGKHCDNLLRRAACQEAQVFGNQLIPPNAQVKKATVFLNPAACKGKARTLFEKNAAPILHLSGMDVTIVKTDYEGQAKKLLELMENTDVIIVAGGDGTLQEVVTGVLRRTDEATFSKIPIGFIPLGETSSLSHTLFAESGNKVQHITDATLAIVKGETVPLDVLQIKGEKEQPVFAMTGLRWGSFRDAGVKVSKYWYLGPLKIKAAHFFSTLKEWPQTHQASISYTGPTERPPNEPEETPVQRPSLYRRILRRLASYWAQPQDALSQEVSPEVWKDVQLSTIELSITTRNNQLDPTSKEDFLNICIEPDTISKGDFITIGSRKVRNPKLHVEGTECLQASQCTLLIPEGAGGSFSIDSEEYEAMPVEVKLLPRKLQFFCDPRKREQMLTSPTQ

What follows are molecules tested against T1, Flag-tagged basic leucine zipper and W2 domain-containing protein 2 (BZW2) (human) (assay: affinity purification with mass spectrometry; SILAC, two forward and two reverse replicates; HEK293 stably expressing Flag-tagged BZW2 against tag-free BZW2 as control; anti-FLAG M2 affinity gel, washed 3x with NP40 wash buffer (0.2% NP40, 25 mM Tris-HCl pH 7.4, 150 mM NaCl); hits: H/L >= 4.0 forward and <= 0.4 reverse in at least three of four replicates).
With ATP5A1 (from UniProt P25705 44-553) the binding was “binds”.
VAPB (from UniProt O95292 1-243) was tested, and the binding was “binds”.
With CAMLG (from UniProt P49069 1-296) the binding was “binds”.
In the case of BSG (from UniProt P35613-2), the binding is reported as “binds”.
CKAP4 (from UniProt Q07065 1-602) was tested, and the binding was “binds”.
In the case of MUL1 (from UniProt Q969V5 1-352), the binding is reported as “binds”.
For “TMPO/LAP2 (human (endogenous in HEK293))”, the binding was “binds”.
With GNAI2 (from UniProt P04899 1-355) the binding was “binds”.
With B1 the binding was “binds”.
For B2, the binding was “binds”.
For B3, the binding was “binds”.
In the case of B4, the binding is reported as “binds”.
B5 was tested, and the binding was “binds”.
In the case of B6, the binding is reported as “binds”.
For B7, the binding was “binds”.
For B8, the binding was “binds”.
In the case of B9, the binding is reported as “binds”.
B10 was tested, and the binding was “binds”.
With B11 the binding was “binds”.
With B12 the binding was “binds”.
